Measurements from paper PMC6829621.
Results are given in words; binding and its absence hold for the method and conditions named. Some binding calls cover weakened binding; strength is not graded here.

Sequences of proteins named here, by UniProt entry; tags and fusion partners are left off. A change or cut given only in a name is not applied to a line headed by its entry. A line that says so, or that is headed by a name, gives the form on record, which may keep a tag or linker. Residues count along the entry.
UniProt P31266: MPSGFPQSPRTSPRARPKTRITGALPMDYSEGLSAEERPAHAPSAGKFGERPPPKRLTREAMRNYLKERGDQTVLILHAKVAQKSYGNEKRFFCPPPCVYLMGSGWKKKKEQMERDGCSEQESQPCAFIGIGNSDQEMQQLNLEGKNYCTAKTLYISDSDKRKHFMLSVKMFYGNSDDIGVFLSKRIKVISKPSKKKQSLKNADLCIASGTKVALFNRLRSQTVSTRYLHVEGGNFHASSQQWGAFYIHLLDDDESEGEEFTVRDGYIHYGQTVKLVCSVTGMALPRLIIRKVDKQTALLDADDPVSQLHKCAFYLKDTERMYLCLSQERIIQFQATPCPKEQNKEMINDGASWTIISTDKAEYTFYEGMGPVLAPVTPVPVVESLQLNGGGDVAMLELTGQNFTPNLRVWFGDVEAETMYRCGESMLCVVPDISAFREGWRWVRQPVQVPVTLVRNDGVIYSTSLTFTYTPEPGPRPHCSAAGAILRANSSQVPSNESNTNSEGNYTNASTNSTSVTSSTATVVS
RBPJ^LLL (P31266, form named): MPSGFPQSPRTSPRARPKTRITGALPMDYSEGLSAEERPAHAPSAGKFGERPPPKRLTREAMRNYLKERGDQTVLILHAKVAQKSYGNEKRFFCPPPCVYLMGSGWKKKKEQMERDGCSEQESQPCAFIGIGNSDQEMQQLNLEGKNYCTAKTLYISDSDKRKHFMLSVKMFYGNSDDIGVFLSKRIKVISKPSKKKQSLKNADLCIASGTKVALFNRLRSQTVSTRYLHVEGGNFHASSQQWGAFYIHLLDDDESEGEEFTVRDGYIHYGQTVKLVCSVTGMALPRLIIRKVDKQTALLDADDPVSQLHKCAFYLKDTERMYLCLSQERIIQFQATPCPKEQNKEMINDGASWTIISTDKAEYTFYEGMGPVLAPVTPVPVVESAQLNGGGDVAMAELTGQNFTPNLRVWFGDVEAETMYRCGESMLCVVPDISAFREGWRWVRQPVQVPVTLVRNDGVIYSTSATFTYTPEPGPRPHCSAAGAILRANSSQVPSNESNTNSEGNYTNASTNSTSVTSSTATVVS
UniProt Q6T264, residues 12-74: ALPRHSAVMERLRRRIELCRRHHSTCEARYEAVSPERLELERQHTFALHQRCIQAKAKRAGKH
UniProt P28159: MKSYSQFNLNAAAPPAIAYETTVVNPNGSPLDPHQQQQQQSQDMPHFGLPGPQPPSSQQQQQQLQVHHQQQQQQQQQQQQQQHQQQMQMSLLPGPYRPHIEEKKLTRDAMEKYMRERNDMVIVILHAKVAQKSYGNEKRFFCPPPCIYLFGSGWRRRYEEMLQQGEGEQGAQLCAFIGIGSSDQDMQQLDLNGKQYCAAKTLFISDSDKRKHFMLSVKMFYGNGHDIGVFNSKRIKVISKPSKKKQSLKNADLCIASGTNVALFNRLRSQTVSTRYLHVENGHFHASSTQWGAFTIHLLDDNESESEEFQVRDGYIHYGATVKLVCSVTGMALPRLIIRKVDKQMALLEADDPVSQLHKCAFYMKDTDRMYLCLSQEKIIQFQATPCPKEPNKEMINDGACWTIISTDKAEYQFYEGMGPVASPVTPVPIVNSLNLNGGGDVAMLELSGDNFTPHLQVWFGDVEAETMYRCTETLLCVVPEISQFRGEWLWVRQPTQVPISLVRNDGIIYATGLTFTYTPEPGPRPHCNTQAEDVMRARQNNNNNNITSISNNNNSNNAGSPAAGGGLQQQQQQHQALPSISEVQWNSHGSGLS
Su(H)^LLL (P28159, form named): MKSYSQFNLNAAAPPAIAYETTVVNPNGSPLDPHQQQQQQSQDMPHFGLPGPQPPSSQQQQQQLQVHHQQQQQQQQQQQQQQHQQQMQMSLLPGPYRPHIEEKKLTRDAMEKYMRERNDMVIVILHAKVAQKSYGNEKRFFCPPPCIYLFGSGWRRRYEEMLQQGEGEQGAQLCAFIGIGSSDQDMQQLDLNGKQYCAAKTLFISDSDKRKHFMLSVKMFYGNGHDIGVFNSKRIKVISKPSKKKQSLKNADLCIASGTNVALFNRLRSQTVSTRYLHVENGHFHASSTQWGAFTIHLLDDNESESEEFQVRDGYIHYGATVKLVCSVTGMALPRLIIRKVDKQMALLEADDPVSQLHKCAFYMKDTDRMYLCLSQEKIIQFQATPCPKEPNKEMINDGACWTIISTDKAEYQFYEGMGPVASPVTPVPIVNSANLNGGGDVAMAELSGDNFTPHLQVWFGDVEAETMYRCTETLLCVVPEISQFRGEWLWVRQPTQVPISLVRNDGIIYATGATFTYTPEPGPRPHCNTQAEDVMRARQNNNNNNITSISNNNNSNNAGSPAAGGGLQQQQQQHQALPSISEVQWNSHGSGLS
UniProt Q01705, residues 1751-2293: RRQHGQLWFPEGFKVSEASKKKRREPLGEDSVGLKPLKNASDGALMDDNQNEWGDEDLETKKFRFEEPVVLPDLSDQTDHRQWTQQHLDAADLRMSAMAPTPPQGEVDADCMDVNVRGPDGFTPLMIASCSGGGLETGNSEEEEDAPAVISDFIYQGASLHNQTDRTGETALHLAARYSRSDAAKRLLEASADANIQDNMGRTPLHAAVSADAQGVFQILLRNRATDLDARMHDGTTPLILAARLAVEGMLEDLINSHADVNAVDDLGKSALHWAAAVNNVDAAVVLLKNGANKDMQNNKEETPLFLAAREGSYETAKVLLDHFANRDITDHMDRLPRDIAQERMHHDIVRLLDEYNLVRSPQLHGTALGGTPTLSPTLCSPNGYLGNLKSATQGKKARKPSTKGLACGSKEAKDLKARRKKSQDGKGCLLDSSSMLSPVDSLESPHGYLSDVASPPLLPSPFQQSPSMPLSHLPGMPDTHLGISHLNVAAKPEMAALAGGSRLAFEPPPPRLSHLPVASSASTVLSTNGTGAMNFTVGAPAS

biological target: T1, RICN, intracellular Notch including RAM domain (aa 1762-2176) (D. melanogaster) (UniProt P07207); assay: two-hybrid; yeast protein three-hybrid assay with D. melanogaster components: Mam (aa 118-194) in pEG vector, RICN (aa 1762-2176) in pESC vector, CSL variants in pJG vector; lacZ reporter; qualitative, and quantified in Miller Units
T1 sequence: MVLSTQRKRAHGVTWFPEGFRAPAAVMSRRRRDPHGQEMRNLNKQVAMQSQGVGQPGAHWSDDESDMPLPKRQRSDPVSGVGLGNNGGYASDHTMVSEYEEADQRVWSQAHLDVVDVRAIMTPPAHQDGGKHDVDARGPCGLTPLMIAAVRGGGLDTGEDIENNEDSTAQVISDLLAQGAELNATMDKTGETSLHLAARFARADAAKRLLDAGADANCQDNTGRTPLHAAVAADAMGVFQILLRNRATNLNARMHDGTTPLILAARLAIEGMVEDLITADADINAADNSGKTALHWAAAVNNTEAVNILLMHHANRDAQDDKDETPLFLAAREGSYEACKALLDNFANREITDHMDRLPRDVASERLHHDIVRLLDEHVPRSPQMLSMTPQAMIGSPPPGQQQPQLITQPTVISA

binding, binds:
RBPJ^LLL (from UniProt P31266 1-526)
mouse RBPJ, wild type (from UniProt P31266 1-526)

biological target: T2, Drosophila Mastermind (aa 118-194) (D. melanogaster) (UniProt P21519); assay: as above
T2 sequence: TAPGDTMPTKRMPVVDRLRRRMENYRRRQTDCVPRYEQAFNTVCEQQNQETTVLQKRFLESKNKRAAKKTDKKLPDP

binding, binds:
RBPJ^LLL (from UniProt P31266 1-526)
mouse RBPJ, wild type (from UniProt P31266 1-526)

biological target: MamL (aa 12-74) of mouse Mastermind-like protein 1 (Mus musculus) (UniProt Q6T264); assay: two-hybrid; yeast protein three-hybrid assay with M. musculus components: MamL (aa 12-74) in pEG vector, NICD (aa 1751-2293) in pESC vector, CSL variants in pJG vector; lacZ reporter; qualitative, and quantified in Miller Units

binding, binds:
RBPJ^LLL (from UniProt P31266 1-526)
Su(H)^LLL (from UniProt P28159 1-594)
Suppressor of Hairless, wild type (from UniProt P28159 1-594)
mouse NICD (aa 1751-2293) of Notch homolog protein 1 (from UniProt Q01705 1751-2293) (domain or fragment)
mouse RBPJ, wild type (from UniProt P31266 1-526)

biological target: mouse NICD (aa 1751-2293) of Notch homolog protein 1 (Mus musculus) (UniProt Q01705); assay: as above

binding, binds:
RBPJ^LLL (from UniProt P31266 1-526)
Su(H)^LLL (from UniProt P28159 1-594)
Suppressor of Hairless, wild type (from UniProt P28159 1-594)
mouse RBPJ, wild type (from UniProt P31266 1-526)
